The campaign covered roughly 400,000 compounds. About 13,000 (3.2%) were called active. Inconclusive results, whose numbers are uncertain, are shown with a selection of clear calls. Calls follow the shape of the dose curve; as a rule, active = well fitted cell-killing curve with a large enough effect; inconclusive = small, poorly fitted or top-dose-only effect, or effect the other way; inactive = flat fitted curve, though single readings scatter. Where the call is inconclusive, the potency comes from a doubtful curve fit.
Assay: qHTS assay for MDR1-selective chemotherapeutics: Primary screen using the drug-selected MDR subline cells KB-V1; also: nearly all actives have a fitted effect of over 60% in size
Details: KB-V1 MDR cells viability, CellTiter-Glo, 72 h; activity change, negative = cytotoxicity: at 46.1 µM (top of the series)
In short: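 qHTS viability screen in drug-selected KB-V1 MDR cells: 72 h compound treatment at 37 degrees C, ATP luminescence end point.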
% is scaled to controls: 0 for no effect and ±100 for the full control effect; potency is read from the fitted curve at half-maximal effect.

For `CCCCc1ccc(NC2=NCC(=O)N2CCc2ccccc2)cc1`, which Potency is on record?
The Potency was inconclusive: 20.6 µM [cytotoxic, single point].

Which Potency does the source give for `COC1OC(c2ccccc2)=C(c2ccc(C(N)=O)cc2)c2ccc(F)cc21` (stereo not drawn) here?
Its Potency is inconclusive: 9.2 µM [rising, partial curve, poor fit].

For `CCCCCc1c(-c2ccc(Br)cc2)ncn1CCc1ccccc1OC`, which Potency is on record?
The Potency was active: 16.4 µM.

For `CSC1=NCCN1S(=O)(=O)c1ccccc1`, which Potency is on record?
Its Potency is inconclusive: 29.1 µM [rising, single point].

Which Potency does the source give for `CN(C)S(=O)(=O)c1ccc(N2CCOCC2)c(C(=O)NCc2ccc3c(c2)OCO3)c1` here?
The Potency was inconclusive: 16.4 µM [cytotoxic, single point].

For `CCOc1ccc(NC(=O)c2ccc3[nH]c(C)cc(=O)c3c2)cc1`, which Potency is on record?
The Potency was inconclusive: 29.1 µM [rising, single point].

With `CC(NC(=O)C1CCCN1S(=O)(=O)c1cccc2nsnc12)c1ccccc1` (stereo not drawn) as the compound, how does the Potency read?
The Potency was inconclusive: 29.1 µM [cytotoxic, partial curve, poor fit].

For `CCCOC(=O)C1=C(C)NC2=C(C(=O)C(C(=O)OC)C(C)C2)C1c1ccc(N(CC)CC)cc1` (stereo not drawn), which Potency is on record?
The Potency was inconclusive: 8.2 µM [cytotoxic, partial curve, poor fit].

Which Potency does the source give for `CN(Cc1ccc(Cl)cc1)C(c1cc2ccccc2o1)c1nnnn1C(C)(C)C` (stereo not drawn) here?
The Potency was inconclusive: 11.6 µM [cytotoxic, partial curve].

Which activity change, negative = cytotoxicity does the source give for `CCCCCCSc1cccc(-c2nc3cc(C)ccn3c2NC2CCCCC2)c1` here?
Its activity change, negative = cytotoxicity is inconclusive: -30.3% [cytotoxic].

Which Potency does the source give for `Cc1cccc(C)c1NC(=O)CNC(=O)COC(=O)c1ccc(Cl)s1` here?
The Potency was inconclusive: 18.4 µM [rising, single point].

With `Cc1ccc(C)c(N2CCN(C(=O)c3ccc(-c4nc(COc5ccccc5)c(C)o4)cc3)CC2)c1` as the compound, how does the Potency read?
Its Potency is “inactive”.

With `CC(=O)Oc1ccc(C(=O)N2c3ccccc3NC(=O)C2C)cc1` (stereo not drawn) as the compound, how does the Potency read?
Its Potency is “inactive”.

Which Potency does the source give for `CC(C)C[C@@H](CN1CCC[C@@H]1CN1C(=O)C(=O)NC[C@@H]1Cc1ccccc1)N1C[C@H](Cc2ccccc2)N(CC2CCCCCC2)C(=O)C1=O` here?
Its Potency is “inactive”.

With `COc1cccc(CNS(=O)(=O)c2ccc3[nH]c4c(c3c2)CCCCC4)c1` as the compound, how does the Potency read?
Its Potency is active: 20.6 µM.

With `C(=N\Nc1nc2ccccc2s1)/c1ccccn1` as the compound, how does the Potency read?
The Potency was inconclusive: 14.6 µM [cytotoxic, partial curve, poor fit].

For `O=C(CCCCn1c(=O)[nH]c2ccsc2c1=O)N1CCN(c2cccc(C(F)(F)F)c2)CC1`, which Potency is on record?
The Potency was “inactive”.

With `CC(=O)N1CCc2c(sc3c2c(=O)n(-c2cccc(Cl)c2C)c(=O)n3Cc2ccccc2C)C1` as the compound, how does the Potency read?
Its Potency is “inactive”.

Which Potency does the source give for `CCCCCn1c(=O)[nH]c2cc(C(=O)NCCCN3CCCCC3CC)ccc2c1=O` (stereo not drawn) here?
Its Potency is inconclusive: 10.3 µM [rising, partial curve, poor fit].

For `CCOC(=O)c1c(S(=O)(=O)N2CCCC(C(=O)NCc3ccc(F)cc3)C2)c(C)n(CC)c1C` (stereo not drawn), which Potency is on record?
Its Potency is inconclusive: 29.1 µM [cytotoxic, single point].

With `CC(C)Sc1nnc2n(CCc3ccccc3)c(=O)c3c4c(sc3n12)COC(C)(C)C4` as the compound, how does the Potency read?
Its Potency is inconclusive: 25.9 µM [cytotoxic, partial curve, poor fit].

Which Potency does the source give for `Cn1ncc(Br)c1C(=O)N1CCc2ccccc21` here?
The Potency was inconclusive: 16.4 µM [cytotoxic, single point].

Which Potency does the source give for `Cn1c(=O)[nH]c(=O)c2c1nc(NC1CCCCC1)n2Cc1ccccc1` here?
Its Potency is inconclusive: 13 µM [cytotoxic, partial curve, poor fit].

Which Potency does the source give for `CSCCC(NS(=O)(=O)c1ccccc1)C(=O)OCc1cc(=O)oc2cc(O)ccc12` (stereo not drawn) here?
Its Potency is “inactive”.

For `Cn1cc(C(=O)c2ccc(Cl)cc2)cc1-c1nc2ccccc2n1C`, which Potency is on record?
The Potency was active: 13 µM.

For `O=S(=O)(c1ccc(NC(=S)NN=C(C2CC2)C2CC2)cc1)N1CCOCC1`, which Potency is on record?
The Potency was inconclusive: 16.4 µM [cytotoxic, partial curve, poor fit].

With `CCOc1ccc(CN2CCNC(=O)C2CC(=O)NC2CCOCC2)cc1` (stereo not drawn) as the compound, how does the Potency read?
Its Potency is inconclusive: 5.17 µM [rising, partial curve, poor fit].

Which Potency does the source give for `CCCn1c(=O)c(C(=O)NNC(=O)c2ccccc2Cl)c(O)c2ccccc21` here?
Its Potency is active: 9.2 µM.

With `C=CCSc1nnc2c(n1)OC(c1cccnc1)N(C(C)=O)c1ccccc1-2` (stereo not drawn) as the compound, how does the Potency read?
The Potency was “inactive”.

For `N#Cc1c(-c2ccccc2)cc(-c2ccccc2)nc1SCC(O)CS(=O)(=O)Cc1ccccc1` (stereo not drawn), which Potency is on record?
Its Potency is “inactive”.

Which Potency does the source give for `CCOC(=O)N1CCC(Nc2c(-c3ccccc3)c(=O)c2=O)CC1` here?
The Potency was inconclusive: 29.1 µM [cytotoxic, single point].

For `CCCCC(CC)COP(=O)(OCC(CC)CCCC)OCC(CC)CCCC` (stereo not drawn), which activity change, negative = cytotoxicity is on record?
The activity change, negative = cytotoxicity was inconclusive: 4.68%.

Which Potency does the source give for `CCC(C)CN1C(=O)CN(S(C)(=O)=O)CC1(C)C(=O)NC(C)C` (stereo not drawn) here?
Its Potency is “inactive”.

Which Potency does the source give for `COc1ccc(CCNC(=O)[C@H](CCSC)NC(=O)N2CCn3c2nc2ccccc23)cc1OC` here?
The Potency was inconclusive: 18.4 µM [cytotoxic, partial curve].

For `COc1ccc(N2CCN(C(=O)CSc3nnc(NC(=O)C4CC4)s3)CC2)cc1`, which Potency is on record?
Its Potency is “inactive”.

With `Cc1ccccc1Nc1nc(N)c2ccccc2n1` as the compound, how does the Potency read?
The Potency was inconclusive: 11.6 µM [cytotoxic, partial curve, poor fit].

Which Potency does the source give for `O=C(C1CCC(C(=O)N2CCCCC2)CC1)N1CCCCC1` (stereo not drawn) here?
The Potency was inconclusive: 20.6 µM [cytotoxic, partial curve].

For `COC(=O)c1c(NC(=O)CSc2nncs2)sc2c1CCCCC2`, which Potency is on record?
The Potency was active: 23.1 µM.

With `Cc1ccc(O)c(C(CC(=O)NC(C)C)c2ccccc2)c1` (stereo not drawn) as the compound, how does the Potency read?
Its Potency is “inactive”.

Which Potency does the source give for `COc1cc(OC)cc(C(=O)Nc2ccccc2-c2nnn(CC(=O)Nc3cc(C)on3)n2)c1` here?
Its Potency is inconclusive: 5.17 µM [cytotoxic, full curve].

Which Potency does the source give for `CCOCCn1ccc2c(OCC(=O)Nc3ccc(OC)c(OC)c3)cccc2c1=O` here?
The Potency was inconclusive: 29.1 µM [cytotoxic, single point].

With `Oc1ccc(/C=N/Nc2cc(N3CCOCC3)nc(N3CCOCC3)n2)cc1` as the compound, how does the Potency read?
Its Potency is inconclusive: 16.4 µM [cytotoxic, single point].

Which Potency does the source give for `COc1ccc(C(=O)CSc2nc(C)cc(C)n2)cc1[N+](=O)[O-]` here?
Its Potency is inconclusive: 8.2 µM [cytotoxic, partial curve].
